We go through 36 targets from the supplement of paper PMC12819154, “High-throughput peptide-centric local stability assay extends protein–ligand identification to membrane proteins, tissues and bacteria” (Nature Structural & Molecular Biology, 2025).

Protein sequences, listed by entry. Tags and fused reporters are not part of them. Lines headed by an entry give the natural chain unless they say otherwise; changes in a name come on top.
UniProt Q02248, whole entry: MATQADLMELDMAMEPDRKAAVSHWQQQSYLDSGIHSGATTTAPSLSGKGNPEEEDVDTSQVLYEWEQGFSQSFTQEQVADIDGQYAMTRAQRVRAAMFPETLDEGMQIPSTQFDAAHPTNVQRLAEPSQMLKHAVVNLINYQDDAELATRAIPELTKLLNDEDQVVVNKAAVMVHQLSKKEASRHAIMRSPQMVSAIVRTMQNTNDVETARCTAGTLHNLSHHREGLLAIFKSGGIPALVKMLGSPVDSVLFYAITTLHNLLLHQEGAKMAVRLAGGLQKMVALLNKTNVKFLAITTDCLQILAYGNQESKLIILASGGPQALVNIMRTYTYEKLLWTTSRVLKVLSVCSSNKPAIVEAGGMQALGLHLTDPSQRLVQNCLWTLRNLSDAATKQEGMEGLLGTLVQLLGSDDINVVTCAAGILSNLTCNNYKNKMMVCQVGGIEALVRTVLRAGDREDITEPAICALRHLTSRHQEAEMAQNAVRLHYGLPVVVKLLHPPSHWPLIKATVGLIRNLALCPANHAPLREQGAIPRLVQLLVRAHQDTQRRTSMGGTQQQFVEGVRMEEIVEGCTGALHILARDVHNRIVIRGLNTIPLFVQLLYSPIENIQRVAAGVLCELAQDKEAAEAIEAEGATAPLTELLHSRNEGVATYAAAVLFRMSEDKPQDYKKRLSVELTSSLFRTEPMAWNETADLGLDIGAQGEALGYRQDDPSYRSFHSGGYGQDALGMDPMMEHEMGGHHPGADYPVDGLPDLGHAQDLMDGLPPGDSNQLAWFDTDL
UniProt Q5PSV9: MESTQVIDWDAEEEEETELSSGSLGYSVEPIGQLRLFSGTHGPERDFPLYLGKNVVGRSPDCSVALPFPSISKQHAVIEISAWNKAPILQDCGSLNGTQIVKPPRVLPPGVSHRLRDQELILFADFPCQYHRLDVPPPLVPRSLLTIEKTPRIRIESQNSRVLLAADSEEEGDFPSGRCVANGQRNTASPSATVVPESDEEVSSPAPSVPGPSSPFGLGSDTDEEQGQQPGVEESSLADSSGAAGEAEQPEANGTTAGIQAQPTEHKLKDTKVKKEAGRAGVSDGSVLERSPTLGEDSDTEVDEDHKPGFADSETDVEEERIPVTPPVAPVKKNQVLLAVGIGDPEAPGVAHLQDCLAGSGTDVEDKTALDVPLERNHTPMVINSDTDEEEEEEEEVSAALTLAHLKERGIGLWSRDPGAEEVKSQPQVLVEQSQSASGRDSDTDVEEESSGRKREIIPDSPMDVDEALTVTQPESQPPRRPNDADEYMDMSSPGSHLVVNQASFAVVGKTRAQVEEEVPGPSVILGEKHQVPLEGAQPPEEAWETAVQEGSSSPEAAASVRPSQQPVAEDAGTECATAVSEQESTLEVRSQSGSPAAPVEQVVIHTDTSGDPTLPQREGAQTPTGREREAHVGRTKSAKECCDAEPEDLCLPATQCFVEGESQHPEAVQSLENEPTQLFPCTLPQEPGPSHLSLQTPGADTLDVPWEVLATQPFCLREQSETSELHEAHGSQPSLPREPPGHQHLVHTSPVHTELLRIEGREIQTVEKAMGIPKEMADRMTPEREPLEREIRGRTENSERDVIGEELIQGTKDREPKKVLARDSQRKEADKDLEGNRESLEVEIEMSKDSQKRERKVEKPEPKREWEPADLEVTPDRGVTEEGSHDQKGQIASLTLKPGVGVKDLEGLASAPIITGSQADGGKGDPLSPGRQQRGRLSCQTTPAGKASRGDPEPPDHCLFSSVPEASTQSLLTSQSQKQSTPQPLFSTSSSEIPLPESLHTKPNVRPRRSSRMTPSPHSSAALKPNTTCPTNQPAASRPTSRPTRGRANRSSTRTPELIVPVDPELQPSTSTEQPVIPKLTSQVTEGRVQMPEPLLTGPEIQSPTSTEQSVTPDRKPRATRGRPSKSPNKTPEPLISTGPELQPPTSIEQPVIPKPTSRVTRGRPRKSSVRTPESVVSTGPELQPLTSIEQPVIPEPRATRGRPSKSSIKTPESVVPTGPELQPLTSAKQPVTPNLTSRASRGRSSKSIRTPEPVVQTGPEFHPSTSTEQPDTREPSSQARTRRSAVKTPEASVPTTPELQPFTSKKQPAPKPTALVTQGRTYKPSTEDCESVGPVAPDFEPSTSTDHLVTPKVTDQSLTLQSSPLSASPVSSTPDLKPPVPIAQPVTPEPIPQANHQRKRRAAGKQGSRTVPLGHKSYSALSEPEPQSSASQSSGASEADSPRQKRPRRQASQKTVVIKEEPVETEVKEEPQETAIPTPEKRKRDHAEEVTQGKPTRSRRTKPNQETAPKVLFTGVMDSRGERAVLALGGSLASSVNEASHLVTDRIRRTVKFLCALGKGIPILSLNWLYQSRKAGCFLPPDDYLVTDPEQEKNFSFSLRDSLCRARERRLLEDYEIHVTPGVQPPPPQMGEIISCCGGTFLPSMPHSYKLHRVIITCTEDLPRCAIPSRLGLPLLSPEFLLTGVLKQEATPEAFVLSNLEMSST
UniProt Q00915: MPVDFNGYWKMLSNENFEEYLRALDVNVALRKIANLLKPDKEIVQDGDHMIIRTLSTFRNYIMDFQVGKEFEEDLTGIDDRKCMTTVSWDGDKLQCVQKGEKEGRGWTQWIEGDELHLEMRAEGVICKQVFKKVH
UniProt Q3UMW8: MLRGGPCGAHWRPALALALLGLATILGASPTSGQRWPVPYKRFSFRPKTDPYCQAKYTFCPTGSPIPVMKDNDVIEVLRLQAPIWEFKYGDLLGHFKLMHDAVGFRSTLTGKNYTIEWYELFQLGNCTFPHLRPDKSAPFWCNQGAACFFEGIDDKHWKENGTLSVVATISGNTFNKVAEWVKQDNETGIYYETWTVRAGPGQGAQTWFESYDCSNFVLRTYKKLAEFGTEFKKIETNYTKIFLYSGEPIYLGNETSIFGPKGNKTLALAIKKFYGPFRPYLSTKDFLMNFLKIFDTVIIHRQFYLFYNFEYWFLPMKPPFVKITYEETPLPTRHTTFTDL
UniProt Q3UHK8: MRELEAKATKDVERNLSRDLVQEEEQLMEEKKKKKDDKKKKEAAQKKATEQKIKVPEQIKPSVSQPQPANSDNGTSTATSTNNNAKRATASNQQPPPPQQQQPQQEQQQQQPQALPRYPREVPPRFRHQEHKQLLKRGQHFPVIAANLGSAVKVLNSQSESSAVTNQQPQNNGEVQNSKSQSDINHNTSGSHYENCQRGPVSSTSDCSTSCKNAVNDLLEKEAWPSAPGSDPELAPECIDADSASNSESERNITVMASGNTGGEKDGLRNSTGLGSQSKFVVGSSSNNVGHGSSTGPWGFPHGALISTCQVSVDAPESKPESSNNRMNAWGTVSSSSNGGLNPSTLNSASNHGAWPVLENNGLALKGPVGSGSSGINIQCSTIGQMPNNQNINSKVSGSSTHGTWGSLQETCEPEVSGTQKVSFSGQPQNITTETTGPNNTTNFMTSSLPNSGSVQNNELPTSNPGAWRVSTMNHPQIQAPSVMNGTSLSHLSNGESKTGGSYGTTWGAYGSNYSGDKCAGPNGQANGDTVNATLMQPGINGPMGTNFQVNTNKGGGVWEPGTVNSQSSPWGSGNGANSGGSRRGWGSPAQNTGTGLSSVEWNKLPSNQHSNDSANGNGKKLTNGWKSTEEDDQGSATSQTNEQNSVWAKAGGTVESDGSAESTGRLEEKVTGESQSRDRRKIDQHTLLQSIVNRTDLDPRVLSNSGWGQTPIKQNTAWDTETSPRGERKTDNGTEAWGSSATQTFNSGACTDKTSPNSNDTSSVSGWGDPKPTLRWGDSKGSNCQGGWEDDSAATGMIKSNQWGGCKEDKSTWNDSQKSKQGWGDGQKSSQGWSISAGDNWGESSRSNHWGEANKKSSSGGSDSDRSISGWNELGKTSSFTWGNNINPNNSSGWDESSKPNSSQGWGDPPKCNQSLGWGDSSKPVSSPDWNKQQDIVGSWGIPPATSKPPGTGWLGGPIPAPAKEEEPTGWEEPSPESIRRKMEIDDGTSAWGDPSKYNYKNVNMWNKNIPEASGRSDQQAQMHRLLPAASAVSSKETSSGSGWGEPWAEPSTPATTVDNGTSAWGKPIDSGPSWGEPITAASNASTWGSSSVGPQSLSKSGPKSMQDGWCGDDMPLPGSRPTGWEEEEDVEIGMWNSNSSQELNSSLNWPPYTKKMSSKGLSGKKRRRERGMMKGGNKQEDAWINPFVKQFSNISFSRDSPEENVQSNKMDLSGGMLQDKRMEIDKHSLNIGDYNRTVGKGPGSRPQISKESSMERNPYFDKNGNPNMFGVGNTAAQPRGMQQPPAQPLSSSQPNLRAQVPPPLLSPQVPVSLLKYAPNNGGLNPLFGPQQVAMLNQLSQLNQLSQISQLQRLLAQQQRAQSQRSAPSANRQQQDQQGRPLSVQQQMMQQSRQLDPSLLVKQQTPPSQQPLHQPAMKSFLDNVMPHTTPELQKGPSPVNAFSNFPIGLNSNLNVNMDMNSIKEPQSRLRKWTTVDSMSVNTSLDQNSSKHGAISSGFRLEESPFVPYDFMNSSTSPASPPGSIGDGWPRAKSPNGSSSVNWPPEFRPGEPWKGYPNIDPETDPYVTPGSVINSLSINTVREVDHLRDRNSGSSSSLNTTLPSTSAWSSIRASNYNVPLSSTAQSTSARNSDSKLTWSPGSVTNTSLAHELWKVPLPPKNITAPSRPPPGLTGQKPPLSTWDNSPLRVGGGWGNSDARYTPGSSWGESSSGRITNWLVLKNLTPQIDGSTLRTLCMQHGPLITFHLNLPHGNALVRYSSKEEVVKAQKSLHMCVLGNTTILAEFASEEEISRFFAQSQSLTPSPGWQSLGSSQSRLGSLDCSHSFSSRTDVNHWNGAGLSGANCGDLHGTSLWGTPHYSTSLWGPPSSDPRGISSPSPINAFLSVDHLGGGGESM
UniProt Q11136: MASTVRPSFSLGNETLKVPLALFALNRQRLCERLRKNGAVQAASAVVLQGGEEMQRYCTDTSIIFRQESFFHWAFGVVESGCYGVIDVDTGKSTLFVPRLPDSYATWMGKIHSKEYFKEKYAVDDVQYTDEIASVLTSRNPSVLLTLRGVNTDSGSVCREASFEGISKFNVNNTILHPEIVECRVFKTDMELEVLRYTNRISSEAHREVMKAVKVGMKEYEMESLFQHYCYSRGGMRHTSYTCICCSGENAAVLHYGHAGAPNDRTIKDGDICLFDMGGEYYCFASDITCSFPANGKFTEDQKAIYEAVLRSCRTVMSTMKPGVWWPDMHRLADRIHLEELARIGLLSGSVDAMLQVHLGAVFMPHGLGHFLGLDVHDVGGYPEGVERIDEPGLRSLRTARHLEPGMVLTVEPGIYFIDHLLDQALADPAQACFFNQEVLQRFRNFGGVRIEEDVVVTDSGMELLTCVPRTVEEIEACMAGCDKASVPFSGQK
UniProt Q4VGL6: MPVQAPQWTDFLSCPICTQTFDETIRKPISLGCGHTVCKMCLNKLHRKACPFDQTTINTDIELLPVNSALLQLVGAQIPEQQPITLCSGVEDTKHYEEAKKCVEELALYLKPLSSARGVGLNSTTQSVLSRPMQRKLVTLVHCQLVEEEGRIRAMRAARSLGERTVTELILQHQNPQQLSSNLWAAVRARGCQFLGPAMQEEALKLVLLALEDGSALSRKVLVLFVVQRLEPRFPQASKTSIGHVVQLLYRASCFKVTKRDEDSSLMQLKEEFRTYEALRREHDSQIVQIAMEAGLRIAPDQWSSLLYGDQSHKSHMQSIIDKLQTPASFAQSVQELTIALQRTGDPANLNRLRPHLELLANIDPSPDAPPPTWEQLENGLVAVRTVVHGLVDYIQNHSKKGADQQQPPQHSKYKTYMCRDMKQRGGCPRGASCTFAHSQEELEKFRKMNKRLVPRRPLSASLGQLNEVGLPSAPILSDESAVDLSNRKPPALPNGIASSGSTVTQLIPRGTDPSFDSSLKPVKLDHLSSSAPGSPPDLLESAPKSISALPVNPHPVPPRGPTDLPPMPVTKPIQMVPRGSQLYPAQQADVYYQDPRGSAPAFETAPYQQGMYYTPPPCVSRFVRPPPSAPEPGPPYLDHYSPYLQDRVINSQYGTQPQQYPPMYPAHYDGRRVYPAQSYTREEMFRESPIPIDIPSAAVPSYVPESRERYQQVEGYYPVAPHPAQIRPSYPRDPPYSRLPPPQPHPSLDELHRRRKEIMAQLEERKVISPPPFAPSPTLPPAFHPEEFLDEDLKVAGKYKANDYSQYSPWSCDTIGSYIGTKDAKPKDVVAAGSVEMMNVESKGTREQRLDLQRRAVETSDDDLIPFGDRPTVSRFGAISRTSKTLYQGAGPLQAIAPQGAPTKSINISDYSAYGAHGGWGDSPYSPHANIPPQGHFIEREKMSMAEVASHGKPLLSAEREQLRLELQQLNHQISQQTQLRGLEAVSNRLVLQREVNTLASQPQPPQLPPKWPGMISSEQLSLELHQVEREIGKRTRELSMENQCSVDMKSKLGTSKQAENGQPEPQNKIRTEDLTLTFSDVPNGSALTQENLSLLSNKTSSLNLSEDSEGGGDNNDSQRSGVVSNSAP

This is one part of the list. Small differences around the control level are noise.

Compound in this test: CN[C@@H]1C[C@H]2O[C@@](C)([C@@H]1OC)n1c3ccccc3c3c4c(c5c6ccccc6n2c5c31)C(=O)NC4 [staurosporine]
In words: log2 fold change of pooled soluble protein (PISA), ligand vs vehicle (log2 ratio); higher = more thermally stabilized. The note with it: ligand concentration: 20 uM; assay format: PISA pool 52.9/55.5/58.6 C.
Turning to UniProt Q3U5Q7, the “log2 fold change of pooled soluble protein” value (“log2 fold change” below) is -0.00692. UniProt Q00899: the “log2 fold change” value worked out at 0.275. Turning to UniProt Q571E4, the “log2 fold change” value was -0.27. As to UniProt Q05685, the “log2 fold change” value was -0.0213. Next, UniProt Q3B7Z2: -0.0467; UniProt Q3UNZ8: -0.213. As to UniProt Q02248, the “log2 fold change” value was -0.0998. The figure for UniProt Q02780 is -0.328; for UniProt Q3TIX9 it is -0.1; for UniProt Q5PSV9 it is 0.00812. Next, UniProt Q149L6: 0.205; UniProt Q3UVG3: -0.135. Regarding UniProt Q0VEE6, the “log2 fold change” value is -0.336. Take UniProt Q05920: the “log2 fold change” value is -0.0874.

UniProt Q00915: the “log2 fold change” value was -0.0359. The figure for UniProt Q08943 is -0.0759. Next, UniProt Q04519: 0.0782. Next, UniProt Q3UPL0: 0.106. Regarding UniProt Q3UMW8, the “log2 fold change” value turned out to be 0.0804.

Consider UniProt Q3TQI7, for which the “log2 fold change” value was -0.0632. Consider UniProt Q5PT54, for which the “log2 fold change” value worked out at 0.0343. The figure for UniProt Q3UIR3 is -0.149; for UniProt Q3T9X0 it is -0.0343; for UniProt Q3U5F4 it is -0.126. Consider UniProt P97864, for which the “log2 fold change” value was found to be 0.148.

As to UniProt Q00422, the “log2 fold change” value was -0.0481.

As for UniProt P97930, the “log2 fold change” value was found to be 0.124. On to UniProt P98083, for which the “log2 fold change” value was 0.388. As to UniProt Q3UHK8, the “log2 fold change” value amounted to 0.451. Turning to UniProt Q11136, the “log2 fold change” value was 0.133.

As for UniProt P97823, the “log2 fold change” value turned out to be 0.025. Take UniProt Q4VGL6: the “log2 fold change” value was 0.541.

UniProt Q02357: the “log2 fold change” value worked out at 0.00621.

For UniProt Q5ND29, the “log2 fold change” value was -0.184. Next, UniProt Q3UH66: 0.0604; UniProt Q04447: -0.416.
